Among the data in patent US11938195B2, “Upconversion nanoparticle peptide conjugates” (BP InnoMed Limited, priority 2021, dated 2024) are Sub-cellular fluorescence signal values, retold here.

The subject of this data set is HK1-LMP1 cells. Description: Two-photon confocal imaging, HK1-LMP1. Format: cell-based. To be noted: 30 mg/mL, 980 nm excitation, up to 24 h.
Turning to “UCNP-P5: UCNP is NaGdF4:Yb^3+, Er^3+@NaGdF4 and plurality of polypeptides is Ahx-YFMVFGGRrRKGGFWLY (SEQ ID NO: 5), pH-sensitive imine linker”, the Sub-cellular fluorescence signal entry is listed as “increased fluorescent signals with similar patterns”.

“UCNP-P6: UCNP is NaGdF4:Yb^3+, Er^3+@NaGdF4 and the plurality of polypeptides is Ahx-RrRKGGYFMVFGGFWLY (SEQ ID NO: 6)”: the Sub-cellular fluorescence signal entry is given as “maintained even after 24 h incubation”. Regarding “UCNP-P7: UCNP is NaGdF4:Yb^3+, Er^3+@NaGdF4 and the plurality of polypeptides is Ahx-FWLYGGRrRKGGYFMVF (SEQ ID NO: 7)”, the Sub-cellular fluorescence signal entry was “maintained even after 24 h incubation”.
